Laboratory results as given in article PMC8190280.
These are yes or no findings as the source states them, for the method shown. Some entries that bind do so weakly or less than the wild type.

Amino acid sequences for entries named in this document (tags omitted).
UniProt P19634: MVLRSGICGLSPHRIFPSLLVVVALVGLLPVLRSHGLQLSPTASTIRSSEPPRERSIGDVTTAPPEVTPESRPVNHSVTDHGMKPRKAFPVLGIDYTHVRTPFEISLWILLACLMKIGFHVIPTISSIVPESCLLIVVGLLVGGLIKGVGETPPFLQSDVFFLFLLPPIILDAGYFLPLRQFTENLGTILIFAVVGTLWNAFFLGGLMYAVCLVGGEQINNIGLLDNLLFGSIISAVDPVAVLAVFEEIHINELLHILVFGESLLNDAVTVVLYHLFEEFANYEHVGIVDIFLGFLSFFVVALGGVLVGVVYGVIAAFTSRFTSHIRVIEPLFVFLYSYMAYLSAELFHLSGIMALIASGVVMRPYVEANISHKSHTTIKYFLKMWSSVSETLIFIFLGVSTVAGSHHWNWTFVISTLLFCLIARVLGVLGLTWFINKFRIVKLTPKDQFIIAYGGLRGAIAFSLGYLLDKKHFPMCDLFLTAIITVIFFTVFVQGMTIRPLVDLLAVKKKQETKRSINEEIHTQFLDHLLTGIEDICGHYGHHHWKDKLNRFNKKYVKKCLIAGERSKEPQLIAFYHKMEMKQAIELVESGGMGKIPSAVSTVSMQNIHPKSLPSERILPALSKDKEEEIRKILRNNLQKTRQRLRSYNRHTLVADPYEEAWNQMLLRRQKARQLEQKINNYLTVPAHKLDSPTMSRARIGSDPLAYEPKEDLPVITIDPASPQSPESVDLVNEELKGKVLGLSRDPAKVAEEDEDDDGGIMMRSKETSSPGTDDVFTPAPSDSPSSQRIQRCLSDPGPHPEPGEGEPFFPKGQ

Columns and labels:
[1] = target: human sodium/proton exchanger 1 (NHE1) (human) (UniProt P19634); experiment: cryo-EM structure; NHE1-CHP1^Na/7.5: co-expressed and co-purified complex in MSP1D1/POPC nanodiscs, 150 mM NaCl, pH 7.5; 3.3-Å map focused on the NHE1 TMD; CHP1 not resolved; both purified
[2] = target: human sodium/proton exchanger 1 (NHE1) (human) (UniProt P19634); experiment: cryo-EM structure; NHE1-CHP1^Na/6.5: co-expressed and co-purified complex in MSP1D1/POPC nanodiscs, 150 mM NaCl, pH 6.5; inward-facing; 3.4-Å map (TMD), 4.0-Å map of the NHE1 dimer with one CHP1; both purified
[3] = target: human sodium/proton exchanger 1 (NHE1) (human) (UniProt P19634); experiment: cryo-EM structure; NHE1-CHP1^K/cariporide: co-expressed and co-purified complex in MSP1D1/POPC nanodiscs, 100 mM KCl, pH 7.5, 10 μM cariporide; outward-facing; 3.5-Å map; both purified

Measured: binding

B1: human calcineurin B-homologous protein 1 (CHP1) (protein, UniProt Q99653 1-195)
chain: MGSRASTLLRDEELEEIKKETGFSHSQITRLYSRFTSLDKGENGTLSREDFQRIPELAINPLGDRIINAFFPEGEDQVNFRGFMRTLAHFRPIEDNEKSKDVNGPEPLNSRSNKLHFAFRLYDLDKDEKISRDELLQVLRMMVGVNISDEQLGSIADRTIQEADQDGDSAISFTEFVKVLEKVDVEQKMSIRFLH
binds: [1] | [2] | [3]
